Earlier results, collected in patent publication US11186807B2, “Reducing acetate ester production in yeast” (VIB VZW, priority 2017, dated 2021).

Conditions: reported flavor threshold level; cited from earlier work

Row | Compound | Threshold (ppm)
1 | CC(C)CCO [Isoamyl alcohol] | 70
2 | CC(=O)OCCc1ccccc1 [Phenyl ethyl acetate] | 3.8
3 | CC(=O)OCC(C)C [Isobutyl acetate] | 1.6
4 | CC(=O)OCCC(C)C [Isoamyl acetate] | 0.51
5 | CCOC(C)=O [Ethyl acetate] | 30
